The list shows a part of the results.
Legend:
Assay in all cases: log2 fold change, soluble protein after heating vs DMSO (PISA); higher = thermal stabilisation; K562 cells, 10 uM, 30 min; active = over 0.2 and 3.5 SD of the protein, either way, in both replicates (recomputed)
[1] = compound: CC[C@@H]1C(=O)N(C)c2cnc(Nc3ccc(C(=O)NC4CCN(C)CC4)cc3OC)nc2N1C1CCCC1
Method in brief: (§1)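 K562 cells at 2×10^6 cells/mL were treated with 10 μM compound for 30 min. Aliquots were heated for 3 min across 48°C-58°C, pooled, and extracted in PBS with 0.5% NP-40 at 4°C; soluble protein was the supernatant after 21,000xg for 90 min. Soluble protein was quantified by TMTpro 16plex LC-MS/MS with channel sums equalised, and reported as log2 fold change in thermal stability against DMSO controls, with values from duplicates.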

The chains behind the UniProt entries cited, without tags or fusion partners. Where a name states a change or a piece, a line headed by the entry shows the natural chain unless it says otherwise.
UniProt Q95460, whole entry, looked up: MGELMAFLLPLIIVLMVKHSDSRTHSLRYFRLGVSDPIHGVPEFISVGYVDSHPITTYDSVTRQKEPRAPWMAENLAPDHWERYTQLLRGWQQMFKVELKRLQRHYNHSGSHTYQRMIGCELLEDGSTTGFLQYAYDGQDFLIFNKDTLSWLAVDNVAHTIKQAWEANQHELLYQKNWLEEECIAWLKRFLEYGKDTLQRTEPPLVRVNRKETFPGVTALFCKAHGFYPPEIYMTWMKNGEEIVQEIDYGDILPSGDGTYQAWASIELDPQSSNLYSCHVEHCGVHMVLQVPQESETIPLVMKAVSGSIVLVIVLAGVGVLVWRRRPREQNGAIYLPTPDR
UniProt O75030: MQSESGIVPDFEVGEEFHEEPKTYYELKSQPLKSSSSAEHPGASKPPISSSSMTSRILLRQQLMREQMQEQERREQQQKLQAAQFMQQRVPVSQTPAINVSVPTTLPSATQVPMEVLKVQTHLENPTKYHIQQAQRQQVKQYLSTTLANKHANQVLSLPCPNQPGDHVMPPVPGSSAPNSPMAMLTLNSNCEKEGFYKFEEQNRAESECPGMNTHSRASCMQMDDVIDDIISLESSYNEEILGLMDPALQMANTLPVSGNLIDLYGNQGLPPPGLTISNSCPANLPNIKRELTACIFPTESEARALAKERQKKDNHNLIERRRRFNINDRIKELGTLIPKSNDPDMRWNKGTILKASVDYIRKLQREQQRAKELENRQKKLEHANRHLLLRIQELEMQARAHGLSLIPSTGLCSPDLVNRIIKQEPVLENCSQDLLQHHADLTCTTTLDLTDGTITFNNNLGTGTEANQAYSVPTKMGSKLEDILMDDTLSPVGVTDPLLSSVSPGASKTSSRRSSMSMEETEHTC
UniProt O95396: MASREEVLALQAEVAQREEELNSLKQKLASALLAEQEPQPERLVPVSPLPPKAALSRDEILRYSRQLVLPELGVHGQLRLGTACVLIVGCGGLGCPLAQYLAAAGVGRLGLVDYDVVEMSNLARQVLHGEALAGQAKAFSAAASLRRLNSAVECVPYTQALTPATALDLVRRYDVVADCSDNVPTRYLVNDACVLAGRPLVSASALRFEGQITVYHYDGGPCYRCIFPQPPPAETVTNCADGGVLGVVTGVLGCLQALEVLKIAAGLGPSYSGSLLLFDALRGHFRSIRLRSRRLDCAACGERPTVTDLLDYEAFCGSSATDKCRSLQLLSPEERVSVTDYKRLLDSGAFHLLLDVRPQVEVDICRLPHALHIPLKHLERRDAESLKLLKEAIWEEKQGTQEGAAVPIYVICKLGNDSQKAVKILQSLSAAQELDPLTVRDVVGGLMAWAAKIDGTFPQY
UniProt Q13201: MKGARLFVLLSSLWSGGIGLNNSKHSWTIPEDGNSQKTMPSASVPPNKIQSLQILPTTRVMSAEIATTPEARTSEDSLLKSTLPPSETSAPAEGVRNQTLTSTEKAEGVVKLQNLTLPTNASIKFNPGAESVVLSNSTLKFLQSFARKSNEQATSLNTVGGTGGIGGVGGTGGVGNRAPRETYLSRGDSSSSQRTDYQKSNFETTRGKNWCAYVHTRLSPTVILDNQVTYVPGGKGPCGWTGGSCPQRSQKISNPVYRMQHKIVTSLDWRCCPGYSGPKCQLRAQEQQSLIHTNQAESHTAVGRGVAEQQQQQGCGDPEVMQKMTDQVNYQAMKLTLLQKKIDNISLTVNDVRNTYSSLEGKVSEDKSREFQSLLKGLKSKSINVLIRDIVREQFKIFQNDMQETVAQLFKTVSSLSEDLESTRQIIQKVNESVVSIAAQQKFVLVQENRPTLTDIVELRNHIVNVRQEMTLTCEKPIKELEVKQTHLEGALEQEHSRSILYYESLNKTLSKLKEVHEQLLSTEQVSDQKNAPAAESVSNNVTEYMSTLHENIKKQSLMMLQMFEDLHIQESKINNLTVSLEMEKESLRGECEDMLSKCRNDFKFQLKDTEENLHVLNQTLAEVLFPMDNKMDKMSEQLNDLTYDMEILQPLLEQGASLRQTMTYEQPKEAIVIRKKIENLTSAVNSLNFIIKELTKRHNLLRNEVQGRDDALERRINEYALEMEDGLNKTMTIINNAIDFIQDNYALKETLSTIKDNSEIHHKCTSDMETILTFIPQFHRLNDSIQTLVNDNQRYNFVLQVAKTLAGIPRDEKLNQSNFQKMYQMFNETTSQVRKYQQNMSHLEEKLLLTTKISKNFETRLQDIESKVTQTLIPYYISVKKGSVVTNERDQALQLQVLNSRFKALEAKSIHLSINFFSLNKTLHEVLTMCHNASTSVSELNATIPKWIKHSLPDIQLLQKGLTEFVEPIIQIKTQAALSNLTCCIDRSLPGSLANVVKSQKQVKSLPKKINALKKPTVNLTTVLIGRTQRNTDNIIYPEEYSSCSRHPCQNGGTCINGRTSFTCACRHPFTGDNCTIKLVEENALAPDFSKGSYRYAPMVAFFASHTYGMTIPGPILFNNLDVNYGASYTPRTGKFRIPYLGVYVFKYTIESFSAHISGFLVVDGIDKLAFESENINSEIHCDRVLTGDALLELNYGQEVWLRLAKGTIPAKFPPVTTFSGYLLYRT
UniProt Q9Y605: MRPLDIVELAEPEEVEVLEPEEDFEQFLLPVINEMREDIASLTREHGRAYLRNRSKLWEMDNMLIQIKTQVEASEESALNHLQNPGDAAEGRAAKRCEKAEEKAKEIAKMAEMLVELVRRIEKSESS
UniProt O94851, whole entry, looked up: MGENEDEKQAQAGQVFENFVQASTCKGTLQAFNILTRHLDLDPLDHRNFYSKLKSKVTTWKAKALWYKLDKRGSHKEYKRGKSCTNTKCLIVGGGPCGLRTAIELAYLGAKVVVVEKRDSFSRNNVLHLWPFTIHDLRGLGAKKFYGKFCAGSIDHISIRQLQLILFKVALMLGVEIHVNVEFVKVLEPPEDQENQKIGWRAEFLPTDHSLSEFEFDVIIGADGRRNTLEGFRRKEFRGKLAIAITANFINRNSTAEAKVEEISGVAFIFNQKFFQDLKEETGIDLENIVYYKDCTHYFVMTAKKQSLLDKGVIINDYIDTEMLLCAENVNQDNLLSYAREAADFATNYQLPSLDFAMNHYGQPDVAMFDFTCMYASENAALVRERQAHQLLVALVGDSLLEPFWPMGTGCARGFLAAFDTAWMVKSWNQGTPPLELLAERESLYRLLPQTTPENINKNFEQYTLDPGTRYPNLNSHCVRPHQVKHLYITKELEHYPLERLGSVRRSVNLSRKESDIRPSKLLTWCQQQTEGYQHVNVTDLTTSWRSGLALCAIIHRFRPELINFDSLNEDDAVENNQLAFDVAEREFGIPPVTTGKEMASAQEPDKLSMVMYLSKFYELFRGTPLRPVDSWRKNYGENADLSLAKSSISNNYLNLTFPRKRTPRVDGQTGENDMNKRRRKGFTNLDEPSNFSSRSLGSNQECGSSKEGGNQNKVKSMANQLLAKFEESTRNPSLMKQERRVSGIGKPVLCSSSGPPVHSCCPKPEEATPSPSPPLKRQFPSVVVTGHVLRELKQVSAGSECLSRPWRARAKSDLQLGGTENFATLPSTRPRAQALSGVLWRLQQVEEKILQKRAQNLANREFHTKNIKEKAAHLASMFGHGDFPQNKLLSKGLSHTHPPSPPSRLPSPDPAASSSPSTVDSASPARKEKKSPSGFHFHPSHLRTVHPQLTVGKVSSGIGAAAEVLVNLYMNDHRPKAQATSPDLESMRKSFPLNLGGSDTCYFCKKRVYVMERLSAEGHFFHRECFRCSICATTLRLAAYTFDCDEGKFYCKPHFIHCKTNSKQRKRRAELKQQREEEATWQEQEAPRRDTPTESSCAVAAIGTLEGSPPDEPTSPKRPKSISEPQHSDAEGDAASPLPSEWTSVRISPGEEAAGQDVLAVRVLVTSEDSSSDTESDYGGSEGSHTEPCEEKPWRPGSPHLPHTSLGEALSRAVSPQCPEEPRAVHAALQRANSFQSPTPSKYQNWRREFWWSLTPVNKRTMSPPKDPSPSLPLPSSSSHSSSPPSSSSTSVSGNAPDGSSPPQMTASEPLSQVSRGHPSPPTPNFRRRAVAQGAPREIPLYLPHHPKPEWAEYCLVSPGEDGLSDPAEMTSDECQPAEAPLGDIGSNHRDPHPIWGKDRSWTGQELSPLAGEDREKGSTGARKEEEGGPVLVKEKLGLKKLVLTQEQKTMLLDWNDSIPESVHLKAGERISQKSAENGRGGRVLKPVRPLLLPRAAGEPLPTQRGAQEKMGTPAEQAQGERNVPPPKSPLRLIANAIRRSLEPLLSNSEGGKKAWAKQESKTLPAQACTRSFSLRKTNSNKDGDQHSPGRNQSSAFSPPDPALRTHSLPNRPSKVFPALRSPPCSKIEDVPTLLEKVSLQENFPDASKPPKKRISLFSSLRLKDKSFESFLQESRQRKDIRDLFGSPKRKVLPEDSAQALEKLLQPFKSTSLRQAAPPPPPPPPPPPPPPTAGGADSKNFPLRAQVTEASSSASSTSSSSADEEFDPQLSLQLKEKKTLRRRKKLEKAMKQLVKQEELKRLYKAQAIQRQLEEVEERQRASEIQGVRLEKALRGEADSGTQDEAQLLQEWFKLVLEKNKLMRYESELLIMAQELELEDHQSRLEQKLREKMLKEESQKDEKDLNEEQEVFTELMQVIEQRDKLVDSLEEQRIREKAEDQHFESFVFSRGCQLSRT
UniProt Q86TA1: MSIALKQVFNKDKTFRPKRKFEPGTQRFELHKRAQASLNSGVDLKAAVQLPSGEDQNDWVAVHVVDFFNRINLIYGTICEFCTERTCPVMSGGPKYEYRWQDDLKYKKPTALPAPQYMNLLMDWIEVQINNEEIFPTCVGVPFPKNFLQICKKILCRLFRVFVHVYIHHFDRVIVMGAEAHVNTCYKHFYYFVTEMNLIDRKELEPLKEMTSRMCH
UniProt Q8NB16: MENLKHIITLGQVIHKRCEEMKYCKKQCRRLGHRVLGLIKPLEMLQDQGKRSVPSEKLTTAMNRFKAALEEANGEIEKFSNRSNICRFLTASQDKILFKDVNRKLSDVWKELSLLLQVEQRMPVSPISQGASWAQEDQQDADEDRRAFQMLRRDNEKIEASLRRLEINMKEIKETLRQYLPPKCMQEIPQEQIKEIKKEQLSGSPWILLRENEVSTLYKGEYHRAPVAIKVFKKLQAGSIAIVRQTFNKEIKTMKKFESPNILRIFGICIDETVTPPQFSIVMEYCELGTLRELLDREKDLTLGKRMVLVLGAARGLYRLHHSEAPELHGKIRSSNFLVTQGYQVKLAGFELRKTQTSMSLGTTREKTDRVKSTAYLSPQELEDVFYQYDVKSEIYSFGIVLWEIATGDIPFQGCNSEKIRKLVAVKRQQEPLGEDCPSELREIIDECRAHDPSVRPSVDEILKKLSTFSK
UniProt Q9UHC7: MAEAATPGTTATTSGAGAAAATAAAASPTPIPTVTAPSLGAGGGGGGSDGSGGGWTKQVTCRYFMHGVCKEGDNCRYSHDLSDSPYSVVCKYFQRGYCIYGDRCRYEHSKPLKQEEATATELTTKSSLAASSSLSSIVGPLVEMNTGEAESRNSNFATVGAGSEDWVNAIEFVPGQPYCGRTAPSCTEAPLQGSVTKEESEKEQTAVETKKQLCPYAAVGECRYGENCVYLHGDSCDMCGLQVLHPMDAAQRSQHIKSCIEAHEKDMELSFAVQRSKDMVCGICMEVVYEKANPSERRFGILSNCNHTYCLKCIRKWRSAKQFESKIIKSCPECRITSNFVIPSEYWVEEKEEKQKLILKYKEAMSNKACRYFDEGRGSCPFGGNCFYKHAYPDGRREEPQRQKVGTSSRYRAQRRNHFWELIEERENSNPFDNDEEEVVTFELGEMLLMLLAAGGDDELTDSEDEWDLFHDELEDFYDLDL
UniProt Q8IVH4: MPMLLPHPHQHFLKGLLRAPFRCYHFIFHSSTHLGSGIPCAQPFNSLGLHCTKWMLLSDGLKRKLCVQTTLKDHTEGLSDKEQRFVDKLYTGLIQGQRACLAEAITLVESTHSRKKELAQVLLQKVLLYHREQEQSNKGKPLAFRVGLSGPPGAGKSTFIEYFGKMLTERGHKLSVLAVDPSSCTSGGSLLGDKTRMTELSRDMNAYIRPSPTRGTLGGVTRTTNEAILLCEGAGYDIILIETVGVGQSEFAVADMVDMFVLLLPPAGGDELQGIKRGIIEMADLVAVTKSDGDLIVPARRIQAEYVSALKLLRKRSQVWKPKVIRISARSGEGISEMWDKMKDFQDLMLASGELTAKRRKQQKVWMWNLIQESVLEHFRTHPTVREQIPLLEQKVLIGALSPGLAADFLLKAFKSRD
UniProt Q9UI43: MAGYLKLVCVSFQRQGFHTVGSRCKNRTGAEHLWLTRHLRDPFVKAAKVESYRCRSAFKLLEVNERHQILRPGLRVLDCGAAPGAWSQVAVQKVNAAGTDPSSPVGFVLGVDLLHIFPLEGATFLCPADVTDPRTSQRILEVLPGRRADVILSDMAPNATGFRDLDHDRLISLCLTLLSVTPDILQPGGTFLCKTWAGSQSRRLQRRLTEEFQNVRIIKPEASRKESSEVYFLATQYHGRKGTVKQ
UniProt Q9Y5U8: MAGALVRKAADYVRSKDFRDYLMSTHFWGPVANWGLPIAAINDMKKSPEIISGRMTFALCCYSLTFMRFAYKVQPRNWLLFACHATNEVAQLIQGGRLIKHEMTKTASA

volasertib = compound: CC[C@@H]1C(=O)N(C)c2cnc(Nc3ccc(C(=O)N[C@H]4CC[C@H](N5CCN(CC6CC6)CC5)CC4)cc3OC)nc2N1C(C)C [volasertib]
Method in brief: as §1

[2] = compound: CC[C@H](C)N1C=C(C2=C(C=C(C=C21)C3=CN=C(C=C3)N4CCNCC4)C(=O)NCC5=C(C=C(NC5=O)C)C)C
Method in brief: as §1

[3] = compound: CCn1cc(-c2ccnc3[nH]c(-c4cccc(CN(C)C)c4)cc23)c(-c2ccc(NC(=O)N(C)C)cc2)n1
Method in brief: as §1

[4] = compound: CN(C)CC(=O)Nc1ccc2[nH]c(=O)c3ccccc3c2c1
Method in brief: as §1

[5] = compound: CN1C2=C(C3=C1C(=O)N(N=C3)CC4=CC(=CC=C4)N)SC(=C2)S(=O)C
Method in brief: as §1

[6] = compound: CN1CCC(CNc2ccc3ncc(-c4cccc(OC(F)(F)F)c4)n3n2)CC1
Method in brief: as §1

epoxomicin = compound: CC[C@H](C)[C@@H](C(=O)N[C@@H]([C@@H](C)O)C(=O)N[C@@H](CC(C)C)C(=O)[C@]1(CO1)C)NC(=O)[C@H]([C@@H](C)CC)N(C)C(=O)C [epoxomicin]
Method in brief: as §1

[7] = compound: CCn1c(C(=O)N(C2CC2)C2CC2)cc2c3c(ncn3C)c(Nc3cc(C)n(C)n3)nc21
Method in brief: as §1

rosiglitazone = compound: CN(CCOC1=CC=C(C=C1)C[C@H]2C(=O)NC(=O)S2)C3=CC=CC=N3 (racemic) [rosiglitazone]
Method in brief: as §1

Target: MMADHC (UniProt Q9H3L0)
- log2 fold change [1]: inactive: -0.024
- log2 fold change (volasertib): active: -0.482
- log2 fold change [2]: inactive: 0.087
- log2 fold change [3]: inactive: 0.03
- log2 fold change [4]: inactive: 0.006
- log2 fold change [5]: inactive: 0.047
- log2 fold change [6]: inactive: 0.181

Target: MLXIP (UniProt Q9HAP2)
- log2 fold change (volasertib): inactive: -0.345
- log2 fold change [2]: inactive: 0.047
- log2 fold change (epoxomicin): inactive: 0.128
- log2 fold change [7]: inactive: 0.017
- log2 fold change [3]: inactive: -0.026
- log2 fold change [4]: inactive: -0.019
- log2 fold change (rosiglitazone): inactive: 0.094
- log2 fold change [5]: inactive: 0.053
- log2 fold change [6]: inactive: -0.097

Target: MR1 (UniProt Q95460)
- log2 fold change (epoxomicin): inactive: 0.018
- log2 fold change [7]: inactive: 0.004

Target: MITF (UniProt O75030)
- log2 fold change [1]: inactive: 0.014
- log2 fold change [2]: inactive: 0.02
- log2 fold change [3]: inactive: 0.044
- log2 fold change [4]: inactive: -0.231
- log2 fold change [6]: inactive: -0.046

Target: MPRIP isoform 2 (UniProt Q6WCQ1)
- log2 fold change (volasertib): inactive: -0.209
- log2 fold change [2]: inactive: 0.047
- log2 fold change (epoxomicin): inactive: 0.029
- log2 fold change [7]: inactive: 0.021
- log2 fold change [3]: inactive: 0.046
- log2 fold change [4]: inactive: -0.011
- log2 fold change (rosiglitazone): inactive: 0.085
- log2 fold change [5]: inactive: -0.046
- log2 fold change [6]: inactive: -0.134

Target: MLST8 (UniProt Q9BVC4)
- log2 fold change [1]: inactive: -0.22
- log2 fold change (volasertib): active: -0.353
- log2 fold change [2]: inactive: 0.05
- log2 fold change (epoxomicin): inactive: -0.02
- log2 fold change [4]: inactive: 0.109
- log2 fold change [5]: inactive: -0.016

Target: MICA (UniProt Q29983)
- log2 fold change (volasertib): inactive: 0.024
- log2 fold change [7]: inactive: -0.079
- log2 fold change [3]: inactive: -0.066
- log2 fold change [4]: inactive: 0.033
- log2 fold change (rosiglitazone): inactive: -0.007
- log2 fold change [6]: inactive: 0.151

Target: MORC2 (UniProt Q9Y6X9)
- log2 fold change (volasertib): active: -0.8
- log2 fold change (epoxomicin): inactive: 0.118

Target: MNT (UniProt Q99583)
- log2 fold change (volasertib): inactive: 0.091
- log2 fold change [2]: inactive: -0.131
- log2 fold change (epoxomicin): inactive: 0.006
- log2 fold change [3]: inactive: 0.029
- log2 fold change [4]: inactive: -0.088
- log2 fold change (rosiglitazone): inactive: -0.076
- log2 fold change [6]: inactive: -0.104

Target: MOCS3 (UniProt O95396)
- log2 fold change (volasertib): inactive: -0.103
- log2 fold change [2]: inactive: -0.031
- log2 fold change (epoxomicin): inactive: 0.082
- log2 fold change [7]: inactive: -0.022
- log2 fold change [3]: inactive: -0.348
- log2 fold change [4]: inactive: -0.031
- log2 fold change (rosiglitazone): inactive: -0.049
- log2 fold change [6]: inactive: -0.351

Target: MOSPD1 isoform 3 (UniProt Q9UJG1)
- log2 fold change [2]: inactive: -0.015
- log2 fold change [7]: inactive: -0.139
- log2 fold change [3]: inactive: -0.033
- log2 fold change [6]: inactive: 0.268

Target: MIER2 (UniProt Q8N344)
- log2 fold change (epoxomicin): inactive: 0.094
- log2 fold change [7]: inactive: -0.056
- log2 fold change [4]: inactive: -0.028
- log2 fold change [5]: inactive: -0.075

Target: MPHOSPH8 isoform 2 (UniProt Q99549)
- log2 fold change (volasertib): inactive: 0.012
- log2 fold change (epoxomicin): inactive: 0.16
- log2 fold change [4]: inactive: -0.093
- log2 fold change [5]: inactive: 0.058

Target: MMRN1 (UniProt Q13201)
- log2 fold change [5]: inactive: -0.256

Target: MMTAG2 (UniProt Q9BU76)
- log2 fold change [1]: inactive: 0.088
- log2 fold change (volasertib): inactive: 0.306
- log2 fold change [2]: inactive: 0.004
- log2 fold change [7]: inactive: 0.024
- log2 fold change [3]: inactive: 0.251
- log2 fold change [4]: inactive: -0.052
- log2 fold change (rosiglitazone): inactive: -0.306
- log2 fold change [5]: inactive: 0.199
- log2 fold change [6]: inactive: 0.106

Target: MME (UniProt P08473)
- log2 fold change [1]: inactive: 0.002
- log2 fold change [7]: inactive: -0.085
- log2 fold change [4]: inactive: 0.061
- log2 fold change (rosiglitazone): inactive: -0.138
- log2 fold change [5]: inactive: 0.08

Target: MRFAP1 (UniProt Q9Y605)
- log2 fold change [1]: inactive: -0.107
- log2 fold change (volasertib): inactive: -0.386
- log2 fold change [2]: inactive: 0
- log2 fold change [3]: inactive: 0.022
- log2 fold change [4]: inactive: 0.242
- log2 fold change [5]: inactive: -0.08
- log2 fold change [6]: inactive: -0.032

Target: MICAL2 (UniProt O94851)
- log2 fold change [1]: inactive: 0.035
- log2 fold change (epoxomicin): inactive: 0.149
- log2 fold change [3]: inactive: -0.015
- log2 fold change [4]: inactive: 0.069
- log2 fold change (rosiglitazone): inactive: 0.063
- log2 fold change [5]: inactive: 0.192
- log2 fold change [6]: inactive: -0.242

Target: MID1IP1 (UniProt Q9NPA3)
- log2 fold change (volasertib): inactive: -0.222
- log2 fold change [2]: inactive: 0.125
- log2 fold change (epoxomicin): inactive: -0.163
- log2 fold change [7]: inactive: 0.012
- log2 fold change [3]: inactive: -0.107
- log2 fold change [4]: inactive: 0.051
- log2 fold change (rosiglitazone): inactive: 0.11
- log2 fold change [5]: inactive: 0.022
- log2 fold change [6]: inactive: -0.026

Target: MOB3A (UniProt Q96BX8)
- log2 fold change (volasertib): inactive: -0.317
- log2 fold change [2]: inactive: 0.016
- log2 fold change [7]: inactive: -0.033
- log2 fold change [3]: inactive: 0.08
- log2 fold change [4]: inactive: 0.12
- log2 fold change (rosiglitazone): inactive: 0.094
- log2 fold change [5]: inactive: -0.029
- log2 fold change [6]: inactive: -0.163

Target: MOB3B (UniProt Q86TA1)
- log2 fold change (volasertib): active: -0.633
- log2 fold change [2]: inactive: -0.045
- log2 fold change [3]: inactive: -0.016
- log2 fold change [4]: inactive: 0.034
- log2 fold change [6]: inactive: -0.159

Target: MMP15 (UniProt P51511)
- log2 fold change [3]: inactive: -0.024
- log2 fold change [6]: inactive: -0.056

Target: MLLT10 (UniProt P55197)
- log2 fold change (volasertib): inactive: -0.051
- log2 fold change (epoxomicin): inactive: -0.153
- log2 fold change [3]: inactive: 0.118
- log2 fold change (rosiglitazone): inactive: -0.178
- log2 fold change [6]: inactive: -0.138

Target: MLKL (UniProt Q8NB16)
- log2 fold change [1]: inactive: 0.079
- log2 fold change (volasertib): inactive: 0.042
- log2 fold change (epoxomicin): inactive: -0.104
- log2 fold change [7]: inactive: -0.221
- log2 fold change [3]: inactive: -0.089
- log2 fold change [4]: inactive: 0.03
- log2 fold change [6]: inactive: 0.061

Target: MOCS2 (UniProt O96033)
- log2 fold change [1]: inactive: -0.015
- log2 fold change [7]: inactive: 0.02
- log2 fold change [3]: inactive: 0.012
- log2 fold change [5]: inactive: -0.18
- log2 fold change [6]: inactive: -0.028

Target: MIER3 isoform 2 (UniProt Q7Z3K6)
- log2 fold change [4]: inactive: 0

Target: MKRN1 (UniProt Q9UHC7)
- log2 fold change (volasertib): inactive: 0.005
- log2 fold change [2]: inactive: -0.079
- log2 fold change (epoxomicin): inactive: -0.142
- log2 fold change [7]: inactive: -0.092
- log2 fold change [3]: inactive: 0.056
- log2 fold change [4]: inactive: -0.056
- log2 fold change (rosiglitazone): inactive: 0.072
- log2 fold change [6]: inactive: 0.035

Target: MLH1 (UniProt P40692)
- log2 fold change (volasertib): inactive: -0.385
- log2 fold change (epoxomicin): inactive: 0.11
- log2 fold change [3]: inactive: 0.073
- log2 fold change [5]: inactive: 0.268
- log2 fold change [6]: inactive: 0.112

Target: MMAA (UniProt Q8IVH4)
- log2 fold change (volasertib): inactive: 0.168
- log2 fold change (epoxomicin): inactive: 0.09
- log2 fold change [7]: inactive: -0.088
- log2 fold change [5]: inactive: 0.01

Target: MRM2 (UniProt Q9UI43)
- log2 fold change (volasertib): inactive: -0.083
- log2 fold change [2]: inactive: 0.008
- log2 fold change [4]: inactive: -0.122
- log2 fold change [5]: inactive: -0.042

Target: MICAL1 isoform 4 (UniProt Q8TDZ2)
- log2 fold change (volasertib): inactive: -0.52
- log2 fold change [2]: inactive: 0.107
- log2 fold change (epoxomicin): inactive: 0.239
- log2 fold change [7]: inactive: 0.014
- log2 fold change [4]: inactive: 0.005

Target: MRAS (UniProt O14807)
- log2 fold change [1]: inactive: 0.289
- log2 fold change [2]: inactive: -0.02
- log2 fold change [7]: inactive: 0.014
- log2 fold change [3]: inactive: -0.013
- log2 fold change (rosiglitazone): inactive: -0.029
- log2 fold change [6]: inactive: -0.023

Target: MPC1 (UniProt Q9Y5U8)
- log2 fold change [1]: inactive: -0.287
- log2 fold change (volasertib): inactive: -0.051
- log2 fold change [2]: inactive: -0.073
- log2 fold change [7]: inactive: -0.03
- log2 fold change (rosiglitazone): inactive: -0.21
- log2 fold change [5]: inactive: -0.019

Target: MKKS (UniProt Q9HB66)
- log2 fold change [1]: inactive: 0.061
- log2 fold change [2]: inactive: -0.097
- log2 fold change (epoxomicin): inactive: 0.349
- log2 fold change [7]: inactive: -0.017
- log2 fold change [3]: inactive: 0.018
- log2 fold change [4]: inactive: -0.003
- log2 fold change (rosiglitazone): inactive: -0.038
- log2 fold change [5]: inactive: -0.088
- log2 fold change [6]: inactive: 0.176

Target: MPZL1 isoform 3 (UniProt O95297)
- log2 fold change [5]: inactive: -0.145
